No constants are given. Whether binding was seen depends on the method and setting. For part of these data: In cells and extracts the contact can be indirect. Some entries that bind do so weakly or less than the wild type. Sequences can lack the tags named with a protein. One block for each molecule: values may come before it.
Experiments:
flag-myc-tagged spastin = target: T1, flag-myc-tagged spastin (UniProt Q9UBP0); assay: co-IP; HeLa cells transiently co-expressing flag-myc-spastin and GFP-HIPK2; non-denaturating lysis buffer (50 mM Tris-HCl pH 8, 150 mM NaCl, 1% NP40, 5 mM EDTA); IP with anti-Flag or anti-GFP, Western blot
T1 sequence: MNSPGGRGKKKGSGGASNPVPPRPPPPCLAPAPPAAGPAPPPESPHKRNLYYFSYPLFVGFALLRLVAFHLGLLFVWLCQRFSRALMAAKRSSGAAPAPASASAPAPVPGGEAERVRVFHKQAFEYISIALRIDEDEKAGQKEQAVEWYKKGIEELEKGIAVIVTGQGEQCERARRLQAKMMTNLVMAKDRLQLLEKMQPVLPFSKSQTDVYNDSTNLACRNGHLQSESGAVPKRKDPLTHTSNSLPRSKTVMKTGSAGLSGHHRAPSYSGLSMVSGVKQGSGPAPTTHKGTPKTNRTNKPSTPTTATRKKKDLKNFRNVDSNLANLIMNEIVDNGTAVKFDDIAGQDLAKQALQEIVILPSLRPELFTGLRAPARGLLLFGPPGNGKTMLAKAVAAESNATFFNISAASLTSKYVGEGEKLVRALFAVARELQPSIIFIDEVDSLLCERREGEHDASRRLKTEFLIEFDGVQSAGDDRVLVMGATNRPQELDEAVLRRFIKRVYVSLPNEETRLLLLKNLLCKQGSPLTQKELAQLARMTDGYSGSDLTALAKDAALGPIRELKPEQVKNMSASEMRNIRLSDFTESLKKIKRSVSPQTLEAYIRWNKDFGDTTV

Protein sequences, listed by entry. Tags and fused reporters are not part of them.
UniProt Q9QZR5: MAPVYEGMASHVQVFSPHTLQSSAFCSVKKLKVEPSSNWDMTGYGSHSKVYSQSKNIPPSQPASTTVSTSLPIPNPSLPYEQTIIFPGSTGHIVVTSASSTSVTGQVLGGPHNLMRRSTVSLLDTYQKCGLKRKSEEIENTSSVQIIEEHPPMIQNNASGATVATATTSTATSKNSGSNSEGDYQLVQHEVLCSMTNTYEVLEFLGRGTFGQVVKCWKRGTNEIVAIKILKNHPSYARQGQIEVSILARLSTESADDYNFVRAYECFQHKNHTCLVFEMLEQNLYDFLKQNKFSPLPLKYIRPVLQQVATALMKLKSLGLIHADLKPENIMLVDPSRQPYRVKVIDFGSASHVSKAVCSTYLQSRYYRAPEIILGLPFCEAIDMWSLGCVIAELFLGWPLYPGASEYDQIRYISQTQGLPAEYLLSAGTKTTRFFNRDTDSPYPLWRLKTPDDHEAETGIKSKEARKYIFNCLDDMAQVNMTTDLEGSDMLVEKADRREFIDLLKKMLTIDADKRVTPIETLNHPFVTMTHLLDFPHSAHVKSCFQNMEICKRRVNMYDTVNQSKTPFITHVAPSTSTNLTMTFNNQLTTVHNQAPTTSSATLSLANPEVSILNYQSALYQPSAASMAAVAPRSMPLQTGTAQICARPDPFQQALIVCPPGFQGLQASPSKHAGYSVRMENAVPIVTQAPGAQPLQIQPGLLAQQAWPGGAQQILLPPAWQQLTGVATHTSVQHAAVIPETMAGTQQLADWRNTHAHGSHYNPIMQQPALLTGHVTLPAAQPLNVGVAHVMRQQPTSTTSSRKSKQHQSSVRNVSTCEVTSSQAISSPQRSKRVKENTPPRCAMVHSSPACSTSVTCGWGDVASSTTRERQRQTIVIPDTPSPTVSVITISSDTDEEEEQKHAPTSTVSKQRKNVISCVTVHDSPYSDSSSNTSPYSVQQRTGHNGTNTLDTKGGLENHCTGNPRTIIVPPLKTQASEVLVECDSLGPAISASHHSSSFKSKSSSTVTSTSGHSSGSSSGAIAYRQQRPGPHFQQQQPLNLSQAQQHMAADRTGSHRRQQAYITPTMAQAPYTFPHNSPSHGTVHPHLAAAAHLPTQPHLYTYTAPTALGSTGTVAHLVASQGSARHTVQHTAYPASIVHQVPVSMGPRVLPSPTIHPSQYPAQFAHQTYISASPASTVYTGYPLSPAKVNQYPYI

GST-HIPK2 = GST-HIPK2 (UniProt Q9QZR5); assay: pull-down; GST-HIPK2 (purified by GST pull-down) incubated with 100 ng of recombinant His6-tagged spastin 79-310 in 50 mM Tris-HCl pH 7.5, 150 nM NaCl (so in the source); bound spastin analysed by Western blot; both purified
GFP-tagged HIPK2 (mouse) = GFP-tagged HIPK2 (mouse) (UniProt Q9QZR5); assay: co-IP; HeLa cells transiently co-expressing flag-myc-spastin and GFP-HIPK2; non-denaturating lysis buffer (50 mM Tris-HCl pH 8, 150 mM NaCl, 1% NP40, 5 mM EDTA); IP with anti-Flag or anti-GFP, Western blot

binding (flag-myc-tagged spastin): binds
Molecule: GFP-tagged HIPK2 (from UniProt Q9QZR5 1-1196) (enzyme)

binding (GST-HIPK2): binds
B1: His6-tagged spastin 79–310 (domain or fragment, UniProt Q9UBP0 79-310)
chain: CQRFSRALMAAKRSSGAAPAPASASAPAPVPGGEAERVRVFHKQAFEYISIALRIDEDEKAGQKEQAVEWYKKGIEELEKGIAVIVTGQGEQCERARRLQAKMMTNLVMAKDRLQLLEKMQPVLPFSKSQTDVYNDSTNLACRNGHLQSESGAVPKRKDPLTHTSNSLPRSKTVMKTGSAGLSGHHRAPSYSGLSMVSGVKQGSGPAPTTHKGTPKTNRTNKPSTPTTATRK

binding (GFP-tagged HIPK2 (mouse)): binds
B2: flag-myc-tagged spastin (protein, UniProt Q9UBP0 1-616)
chain: T1 sequence

— article PMC6678495
